Measurements reported in PubChem BioAssay AID1259308 (NCATS, 2017)

Assay: 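Genes whose loss raises luciferase production in HEK293 cells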 (primary screen)
Cells: human HEK293 embryonic kidney cells stably expressing firefly luciferase (HEK-CMV-Luc2-Hygro)
Knock-down reagent: single siRNA against human genes, 0.8 pmol siRNA per well
Time to read-out: 72 h
Measured: 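Reporter luminescence and viable-cell signal on separate replicate plates, given as percent of non-targeting control and median/MAD z-scores, plus per-cell luciferase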
Scale: total luciferase, z-score: higher = more reporter protein produced
Call rule: 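An siRNA counts as active if its total luciferase robust z-score exceeds 3; genes with two or more such siRNAs out of three were retested with fresh siRNAs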
Meaning of the calls: active = raised luciferase; inactive = no rise
In all, the deposit lists about 59,000 reagents; below is a part drawn at random. In the full data, about 1,510 (2.6%) are marked active. 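Calls use total luciferase alone and ignore viability, so some active siRNAs may act by altering cell number.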 The numbers tell different reagents against one gene apart. Not all columns of the deposit are shown. Reagent sequences are not shown.

H2BC4 #1 showed total luciferase, z-score 0.754; inactive. Depletion of H2BC4 #2 gave: total luciferase, z-score 0.283; inactive. H2BC4 #3 showed total luciferase, z-score 0.48; inactive. Silencing of KDM4A #1 resulted in: total luciferase, z-score -1.43; inactive. KDM4A #2 gave total luciferase, z-score 1.57; inactive. Against KDM4A #3, the values are total luciferase, z-score 0.603; inactive.

For LMO4 #1 the deposit lists total luciferase, z-score -0.873; inactive. Depletion of LMO4 #2 came out at: total luciferase, z-score 4.05; active. Silencing of LMO4 #3 came out at: total luciferase, z-score -0.75; inactive. After knock-down of IL1R1 #1, the record shows total luciferase, z-score -0.75; inactive. After knock-down of IL1R1 #2, the record shows total luciferase, z-score 0.299; inactive. Against IL1R1 #3 the deposit lists total luciferase, z-score 0.467; inactive.

For KRT84 #1 the deposit lists total luciferase, z-score 0.604; inactive. After knock-down of KRT84 #2 the results were total luciferase, z-score 0.449; inactive. Against KRT84 #3 the deposit lists total luciferase, z-score 1.39; inactive. Depletion of ATOSB #1 came out at: total luciferase, z-score -0.224; inactive. Knock-down of ATOSB #2 resulted in: total luciferase, z-score 0.29; inactive. For ATOSB #3, the entry reads total luciferase, z-score 0.472; inactive.

C10orf53 #1 scored total luciferase, z-score 0.201; inactive. C10orf53 #2 gave total luciferase, z-score 0.158; inactive. For C10orf53 #3 the deposit lists total luciferase, z-score 0.197; inactive. Against ARL14EPL #1, the values are total luciferase, z-score 0.132; inactive. With knock-down of ARL14EPL #2, the screen gave total luciferase, z-score 1.87; inactive. With knock-down of ARL14EPL #3, the screen gave total luciferase, z-score -0.347; inactive.

TWSG1 #1 showed total luciferase, z-score -1.9; inactive. Silencing of TWSG1 #2 gave: total luciferase, z-score -0.192; inactive. For TWSG1 #3 the deposit lists total luciferase, z-score 0.361; inactive. Knock-down of HSD11B1L #1 came out at: total luciferase, z-score 2.55; inactive. HSD11B1L #2 scored total luciferase, z-score 1.13; inactive. After knock-down of HSD11B1L #3, the screen gave total luciferase, z-score -1.03; inactive.

Against MC1R #1, the values are total luciferase, z-score 0.117; inactive. With knock-down of MC1R #2 the results were total luciferase, z-score 1.46; inactive. Against MC1R #3 the deposit lists total luciferase, z-score -2.3; inactive.

Quoted from the entries so far (3 entries):
KRT84 #2 | total luciferase, z-score: 0.449; activity call: inactive
KRT84 #3 | total luciferase, z-score: 1.39; activity call: inactive
ATOSB #1 | total luciferase, z-score: -0.224; activity call: inactive
